Drawing on patent US7875585 (dated 2011), this text covers binding for two substances.

Sequences of proteins named here, by UniProt entry; tags and fusion partners are left off. A change or cut given only in a name is not applied to a line headed by its entry.
UniProt P16070: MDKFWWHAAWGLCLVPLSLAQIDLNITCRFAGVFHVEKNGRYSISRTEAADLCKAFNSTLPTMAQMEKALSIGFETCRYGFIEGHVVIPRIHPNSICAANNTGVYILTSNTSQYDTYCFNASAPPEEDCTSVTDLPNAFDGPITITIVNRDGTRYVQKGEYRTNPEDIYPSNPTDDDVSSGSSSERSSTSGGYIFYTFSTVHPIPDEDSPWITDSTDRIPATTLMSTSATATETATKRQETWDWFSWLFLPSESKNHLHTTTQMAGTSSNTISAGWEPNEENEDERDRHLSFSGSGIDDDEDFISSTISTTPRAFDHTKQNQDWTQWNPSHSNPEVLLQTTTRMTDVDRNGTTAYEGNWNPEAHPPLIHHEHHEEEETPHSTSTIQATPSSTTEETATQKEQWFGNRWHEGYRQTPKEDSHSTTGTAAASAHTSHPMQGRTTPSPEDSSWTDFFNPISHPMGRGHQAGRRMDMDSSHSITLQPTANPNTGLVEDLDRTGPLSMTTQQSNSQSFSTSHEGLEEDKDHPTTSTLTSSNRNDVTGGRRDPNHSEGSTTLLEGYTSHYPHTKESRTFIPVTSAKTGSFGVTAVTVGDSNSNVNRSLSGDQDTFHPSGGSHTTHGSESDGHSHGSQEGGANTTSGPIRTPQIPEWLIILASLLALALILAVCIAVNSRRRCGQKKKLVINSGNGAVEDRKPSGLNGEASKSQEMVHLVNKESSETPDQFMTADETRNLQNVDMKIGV

These are yes or no findings as the source states them, for the method shown. Binding calls can cover weak binding; strength is not graded here.

The test addresses T1, human E-selectin on CHO-E cells (human, UniProt P16581 22-610).
T1 construct: whole, on cells; also called CD62E
T1 sequence (looked up): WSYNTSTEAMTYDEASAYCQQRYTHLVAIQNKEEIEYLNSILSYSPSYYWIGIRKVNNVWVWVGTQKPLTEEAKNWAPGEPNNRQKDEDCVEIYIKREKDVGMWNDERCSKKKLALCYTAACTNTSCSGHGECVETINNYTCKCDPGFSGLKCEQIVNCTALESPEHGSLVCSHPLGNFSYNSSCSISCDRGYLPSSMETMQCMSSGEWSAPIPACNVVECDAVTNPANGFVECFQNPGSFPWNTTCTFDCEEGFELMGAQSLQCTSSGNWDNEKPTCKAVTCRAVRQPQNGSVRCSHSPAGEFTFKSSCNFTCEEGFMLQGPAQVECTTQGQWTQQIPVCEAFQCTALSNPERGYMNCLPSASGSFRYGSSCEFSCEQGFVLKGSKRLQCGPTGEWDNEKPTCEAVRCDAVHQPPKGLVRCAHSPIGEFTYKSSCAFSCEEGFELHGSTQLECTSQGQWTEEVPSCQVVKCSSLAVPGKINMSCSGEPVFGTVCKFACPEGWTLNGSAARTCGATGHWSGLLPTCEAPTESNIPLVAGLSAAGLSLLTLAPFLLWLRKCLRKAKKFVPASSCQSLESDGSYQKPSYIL
Briefly: blot rolling assay with CHO-E cells.

For the substance “CD44 from blasts of an acute myelogenous leukemia, subtype M5 (from UniProt P16070) (ligand)”, the binding entry was “binds”.
Take “CD44 from the human bone marrow endothelial cell line BMEC-1 (from UniProt P16070) (ligand)”: the binding result is recorded as “no binding”.
